Measured values: article PMC1698493

target: T1, STAT6 (IL-4-activated, endogenous) (Mus musculus (C57BL/6)) (UniProt P52633); experiment: EMSA, supershift; conditions: IL-4-treated extract; 20 mM HEPES pH 7.9, 6.25% glycerol, 0.5 mM EDTA, 50 ug/ml poly dIdC, 50 ug/ml BSA, 12.5 ug/ml salmon sperm DNA, 3 ug nuclear extract, 15 min room temperature; protein in an extract; label: 32P end label
T1 sequence (looked up, limits assumed): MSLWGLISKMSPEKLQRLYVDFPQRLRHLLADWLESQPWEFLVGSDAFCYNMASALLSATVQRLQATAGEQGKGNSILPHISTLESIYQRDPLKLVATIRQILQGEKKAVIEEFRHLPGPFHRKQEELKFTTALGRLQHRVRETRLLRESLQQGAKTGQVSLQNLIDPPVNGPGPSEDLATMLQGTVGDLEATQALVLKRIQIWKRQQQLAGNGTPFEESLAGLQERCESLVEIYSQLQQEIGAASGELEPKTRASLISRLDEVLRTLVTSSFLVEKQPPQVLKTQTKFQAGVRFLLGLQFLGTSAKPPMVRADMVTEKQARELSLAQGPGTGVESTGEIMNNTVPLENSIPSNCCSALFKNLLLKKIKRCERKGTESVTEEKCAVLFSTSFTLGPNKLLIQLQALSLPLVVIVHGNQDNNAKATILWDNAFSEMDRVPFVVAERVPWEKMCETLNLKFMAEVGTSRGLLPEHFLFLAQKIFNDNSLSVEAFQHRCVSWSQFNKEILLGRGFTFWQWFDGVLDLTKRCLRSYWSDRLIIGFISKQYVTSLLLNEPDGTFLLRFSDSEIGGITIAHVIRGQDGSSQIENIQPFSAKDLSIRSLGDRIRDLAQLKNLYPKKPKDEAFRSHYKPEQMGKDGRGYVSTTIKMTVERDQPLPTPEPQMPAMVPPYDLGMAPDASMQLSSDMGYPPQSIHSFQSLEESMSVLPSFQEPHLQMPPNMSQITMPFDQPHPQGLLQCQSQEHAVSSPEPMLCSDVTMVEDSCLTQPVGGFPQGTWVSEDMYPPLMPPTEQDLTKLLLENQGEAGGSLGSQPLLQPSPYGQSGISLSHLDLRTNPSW

Sequence | binding result
TAGGCCTCTTCTACTGAACATCCCTG (double strand) [T4 probe] | binds
AGTGACCATTCTCTGGAAAGCCACAA (double strand) [T2 probe] | binds
ATCTCAAATTCTTTGAATTTCTCTAG (double strand) [T1 probe] | binds
GGTTCTTTTTCTCAGTAAACCCTGGC (double strand) [T11 probe] | binds

target: T1, STAT6 (IL-4-activated, endogenous) (Mus musculus (C57BL/6)); experiment: EMSA; conditions: IL-4-treated extract; 20 mM HEPES pH 7.9, 6.25% glycerol, 0.5 mM EDTA, 50 ug/ml poly dIdC, 50 ug/ml BSA, 12.5 ug/ml salmon sperm DNA, 3 ug nuclear extract, 15 min room temperature; protein in an extract; label: 32P end label

Sequence | binding result
CTATGGGCTTCTAGGGCAGCCTCTGG (double strand) [T8 probe] | no binding
CCTCTGGGTTCCCCAAAATAGGGTGG (double strand) [T5 probe] | no binding
ATAGTGACTTGTCCTGAAACTCTTTT (double strand) [T10 probe] | no binding
TACTGAACATCCCTGTAACCTGCTCA (double strand) [T3 probe] | no binding
GGCTCAGCTTCAGCTGAACCTCTGGG (double strand) [T6 probe] | no binding
AAACTCTTTTCTGGGCACTGTTGTTA (double strand) [T9 probe] | no binding
GTGCTCTATTTCTGGGAGCTGAGCTT (double strand) [T7 probe] | no binding

target: T1, STAT6 (IL-4-activated, endogenous) (Mus musculus (C57BL/6)); experiment: competition with a labelled probe; conditions: unlabelled, 100-fold excess, competes STAT6 complex from T1, T2, T4 and T11 probes; 20 mM HEPES pH 7.9, 6.25% glycerol, 0.5 mM EDTA, 50 ug/ml poly dIdC, 50 ug/ml BSA, 12.5 ug/ml salmon sperm DNA, 3 ug nuclear extract, 15 min room temperature; protein in an extract; label: 32P end label

Sequence | binding result
TAGGCCTCTTCTACTGAACATCCCTG (double strand) [T4 probe] | binds
ATCTCAAATTCTTTGAATTTCTCTAG (double strand) [T1 probe] | binds

For at least one entry, the source does not settle the construct or the ends of the probe. At least one result comes from cells or an extract, where the contact may be indirect. For some of these results: A negative result means that nothing was seen under these conditions. Where a protein sequence is shown, tags need not be part of it.
